This experiment concerns the target N-terminal methyltransferase domain (residues 1-291) of human METTL16 (human) (UniProt Q86W50). As to the kind of experiment: SEC; analytical SEC on Superdex 200 10/300 GL; samples ~21 µM in 100 µl; 25 mM HEPES pH 7.5, 100 mM KCl, 50 mM NaCl, 1 mM TCEP, 1 mM MgCl2; molecular weights from a standard curve; both purified. For orientation: In gel filtration, larger molecules generally elute earlier.

Results are given in words; binding and its absence hold for the method and conditions named.

B1: N-terminal methyltransferase domain (residues 1-291) of human METTL16 (domain or fragment, UniProt Q86W50 1-291)
chain: SNAMALSKSMHARNRYKDKPPDFAYLASKYPDFKQHVQINLNGRVSLNFKDPEAVRALTCTLLREDFGLSIDIPLERLIPTVPLRLNYIHWVEDLIGHQDSDKSTLRRGIDIGTGASCIYPLLGATLNGWYFLATEVDDMCFNYAKKNVEQNNLSDLIKVVKVPQKTLLMDALKEESEIIYDFCMCNPPFFANQLEAKGVNSRNPRRPPPSSVNTGGITEIMAEGGELEFVKRIIHDSLQLKKRLRWYSCMLGKKCSLAPLKEELRIQGVPKVTYTEFCQGRTMRWALAWSFYD
Take B1: the binding entry is on record as “no binding (tested: ~21 µM)”.

These data come from paper PMC5871880, “Structural insights into the RNA methyltransferase domain of METTL16” (Scientific Reports, 2018).
